The chains are these.
B1: HA-tagged human Smad 6 (Smad 6-HA) (protein, UniProt O43541 1-496)
chain: MFRSKRSGLVRRLWRSRVVPDREEGGSGGGGGGDEDGSLGSRAEPAPRAREGGGCGRSEVRPVAPRRPRDAVGQRGAQGAGRRRRAGGPPRPMSEPGAGAGSSLLDVAEPGGPGWLPESDCETVTCCLFSERDAAGAPRDASDPLAGAALEPAGGGRSREARSRLLLLEQELKTVTYSLLKRLKERSLDTLLEAVESRGGVPGGCVLVPRADLRLGGQPAPPQLLLGRLFRWPDLQHAVELKPLCGCHSFAAAADGPTVCCNPYHFSRLCGPESPPPPYSRLSPRDEYKPLDLSDSTLSYTETEATNSLITAPGEFSDASMSPDATKPSHWCSVAYWEHRTRVGRLYAVYDQAVSIFYDLPQGSGFCLGQLNLEQRSESVRRTRSKIGFGILLSKEPDGVWAYNRGEHPIFVNSPTLDAPGGRALVVRKVPPGYSIKVFDFERSGLQHAPEPDAADGPYDPNSVRISFAKGWGPCYSRQFITSCPCWLEILLNNPR

Sequences of proteins named here, by UniProt entry; tags and fusion partners are left off.
UniProt O75369: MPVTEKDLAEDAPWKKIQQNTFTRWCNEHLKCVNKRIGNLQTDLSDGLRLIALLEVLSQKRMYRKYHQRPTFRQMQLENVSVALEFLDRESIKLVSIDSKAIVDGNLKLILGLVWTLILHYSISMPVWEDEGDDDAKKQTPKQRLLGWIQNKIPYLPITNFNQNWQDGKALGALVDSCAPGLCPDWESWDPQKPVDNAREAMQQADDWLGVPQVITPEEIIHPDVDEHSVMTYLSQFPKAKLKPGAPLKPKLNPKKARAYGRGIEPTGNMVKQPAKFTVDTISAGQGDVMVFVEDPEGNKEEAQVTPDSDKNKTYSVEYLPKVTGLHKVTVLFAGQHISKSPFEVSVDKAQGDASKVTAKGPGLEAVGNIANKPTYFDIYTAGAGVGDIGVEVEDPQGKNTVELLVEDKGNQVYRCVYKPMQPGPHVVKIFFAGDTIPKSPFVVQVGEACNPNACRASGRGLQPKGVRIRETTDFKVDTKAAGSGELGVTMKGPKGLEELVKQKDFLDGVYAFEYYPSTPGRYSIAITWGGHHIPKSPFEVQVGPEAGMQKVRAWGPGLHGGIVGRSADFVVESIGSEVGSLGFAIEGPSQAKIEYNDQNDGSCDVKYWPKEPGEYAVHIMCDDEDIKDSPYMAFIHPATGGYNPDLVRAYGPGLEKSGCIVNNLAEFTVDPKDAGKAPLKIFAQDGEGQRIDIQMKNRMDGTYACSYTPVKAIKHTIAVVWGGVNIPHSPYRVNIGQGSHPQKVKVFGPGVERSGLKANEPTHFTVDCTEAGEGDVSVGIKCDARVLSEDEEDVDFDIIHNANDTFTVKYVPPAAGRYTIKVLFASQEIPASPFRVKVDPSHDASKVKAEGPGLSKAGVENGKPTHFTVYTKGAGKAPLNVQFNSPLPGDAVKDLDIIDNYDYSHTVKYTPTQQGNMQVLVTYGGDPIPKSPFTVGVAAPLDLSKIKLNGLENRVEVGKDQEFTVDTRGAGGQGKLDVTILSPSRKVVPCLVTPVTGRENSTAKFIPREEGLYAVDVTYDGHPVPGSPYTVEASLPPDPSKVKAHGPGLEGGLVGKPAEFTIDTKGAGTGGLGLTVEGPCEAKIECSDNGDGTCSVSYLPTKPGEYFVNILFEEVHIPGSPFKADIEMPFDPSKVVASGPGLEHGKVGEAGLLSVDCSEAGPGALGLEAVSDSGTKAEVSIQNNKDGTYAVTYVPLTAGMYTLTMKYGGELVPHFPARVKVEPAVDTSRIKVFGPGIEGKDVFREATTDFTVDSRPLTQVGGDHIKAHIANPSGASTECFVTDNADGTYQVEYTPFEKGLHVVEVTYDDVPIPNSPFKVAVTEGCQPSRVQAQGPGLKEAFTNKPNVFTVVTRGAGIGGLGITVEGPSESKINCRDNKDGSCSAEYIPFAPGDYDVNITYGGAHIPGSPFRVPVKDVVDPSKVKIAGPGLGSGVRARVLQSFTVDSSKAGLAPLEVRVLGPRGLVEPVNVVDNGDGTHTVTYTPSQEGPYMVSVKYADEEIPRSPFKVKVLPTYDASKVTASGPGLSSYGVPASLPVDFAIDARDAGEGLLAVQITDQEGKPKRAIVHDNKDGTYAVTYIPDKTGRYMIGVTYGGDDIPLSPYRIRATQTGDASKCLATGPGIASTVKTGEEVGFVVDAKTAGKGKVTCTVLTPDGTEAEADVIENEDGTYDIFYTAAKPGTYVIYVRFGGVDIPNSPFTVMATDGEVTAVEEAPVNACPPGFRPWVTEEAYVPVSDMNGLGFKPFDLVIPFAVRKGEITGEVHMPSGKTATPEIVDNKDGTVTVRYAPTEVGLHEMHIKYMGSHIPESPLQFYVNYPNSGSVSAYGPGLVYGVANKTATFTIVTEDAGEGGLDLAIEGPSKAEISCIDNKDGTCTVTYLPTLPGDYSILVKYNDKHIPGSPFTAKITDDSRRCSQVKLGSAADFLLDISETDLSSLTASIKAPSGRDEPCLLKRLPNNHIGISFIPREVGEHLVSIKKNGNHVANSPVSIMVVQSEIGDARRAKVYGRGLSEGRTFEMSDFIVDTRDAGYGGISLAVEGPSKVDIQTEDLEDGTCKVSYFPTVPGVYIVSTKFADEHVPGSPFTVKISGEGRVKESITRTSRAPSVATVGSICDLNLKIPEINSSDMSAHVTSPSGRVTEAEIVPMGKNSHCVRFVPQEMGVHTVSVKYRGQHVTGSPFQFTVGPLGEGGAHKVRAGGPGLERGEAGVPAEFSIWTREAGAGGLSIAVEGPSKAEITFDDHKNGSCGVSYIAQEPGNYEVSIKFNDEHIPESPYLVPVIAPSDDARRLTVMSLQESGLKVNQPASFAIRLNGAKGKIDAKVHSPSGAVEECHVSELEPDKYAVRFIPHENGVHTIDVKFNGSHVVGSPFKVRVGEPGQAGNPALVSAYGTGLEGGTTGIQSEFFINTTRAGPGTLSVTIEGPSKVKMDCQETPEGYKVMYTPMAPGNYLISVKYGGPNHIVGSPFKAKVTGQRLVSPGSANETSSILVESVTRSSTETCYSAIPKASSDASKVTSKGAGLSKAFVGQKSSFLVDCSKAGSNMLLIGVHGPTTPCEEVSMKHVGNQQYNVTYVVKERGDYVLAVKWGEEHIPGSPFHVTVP
UniProt O15105: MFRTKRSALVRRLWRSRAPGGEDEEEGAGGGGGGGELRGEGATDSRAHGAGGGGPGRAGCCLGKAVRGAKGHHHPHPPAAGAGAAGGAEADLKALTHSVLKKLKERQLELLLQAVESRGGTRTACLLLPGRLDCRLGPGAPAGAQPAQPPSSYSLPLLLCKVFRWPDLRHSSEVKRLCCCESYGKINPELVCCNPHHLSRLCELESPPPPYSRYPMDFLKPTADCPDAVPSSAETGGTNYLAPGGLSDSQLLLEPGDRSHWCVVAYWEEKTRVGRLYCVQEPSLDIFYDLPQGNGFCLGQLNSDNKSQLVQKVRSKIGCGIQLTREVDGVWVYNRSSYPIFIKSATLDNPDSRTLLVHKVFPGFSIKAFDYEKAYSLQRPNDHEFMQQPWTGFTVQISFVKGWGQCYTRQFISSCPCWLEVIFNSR
UniProt Q15797: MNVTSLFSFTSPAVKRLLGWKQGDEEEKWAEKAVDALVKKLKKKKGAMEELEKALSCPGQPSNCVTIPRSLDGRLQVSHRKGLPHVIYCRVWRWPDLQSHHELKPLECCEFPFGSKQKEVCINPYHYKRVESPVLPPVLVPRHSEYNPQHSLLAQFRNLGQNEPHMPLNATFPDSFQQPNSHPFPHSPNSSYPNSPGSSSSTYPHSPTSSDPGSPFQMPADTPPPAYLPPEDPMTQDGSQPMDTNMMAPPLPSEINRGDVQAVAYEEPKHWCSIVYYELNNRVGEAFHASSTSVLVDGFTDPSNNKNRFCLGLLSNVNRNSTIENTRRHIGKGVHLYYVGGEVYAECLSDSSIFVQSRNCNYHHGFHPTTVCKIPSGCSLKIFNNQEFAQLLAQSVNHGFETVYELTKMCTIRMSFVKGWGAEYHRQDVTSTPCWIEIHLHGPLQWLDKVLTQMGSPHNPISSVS

The record followed here is article PMC9042866.

No constants are given. Whether binding was seen depends on the method and setting. Binding seen in cells or lysates may run through a third protein. Some binding calls cover weakened binding; strength is not graded here. Sequences can lack the tags named with a protein.

In the experiment the target is GFP-tagged human filamin B (FLNB-GFP) (human) (UniProt O75369). In words: co-IP; lysates of wild-type MEFs co-transfected with FLNB-GFP and a Flag- or HA-tagged Smad plasmid; immunoprecipitated with an anti-GFP antibody (Protein A/G PLUS-Agarose); blots probed with GFP, Flag or HA antibodies.
Turning to “HA-tagged human Smad 7 (Smad 7-HA) (from UniProt O15105 1-426)”, the binding entry is on record as “binds”.

On to “Flag-tagged human Smad 1 (Smad 1-Flag) (from UniProt Q15797 1-465)”, for which the binding entry is on record as “binds”.

As to B1, the binding result is “binds”.
